This is an account of results in publication PMC3223156, “Designer Lipid-Like Peptides: A Class of Detergents for Studying Functional Olfactory Receptors Using Commercial Cell-Free Systems” (PLoS ONE, 2011).

This assay addresses olfactory receptor mOR103-15 (UniProt Q9QWU6). Nature of the assay: SDS-PAGE (silver stain and western blot); immunoaffinity-purified receptors in PBS + 0.2% FC-14; samples kept at room temperature (not boiled) before loading on 10% Bis-Tris SDS-PAGE gels; monomeric and dimeric bands seen; both purified.

Results are given in words; binding and its absence hold for the method and conditions named. Some binding calls cover weakened binding; strength is not graded here.

B1: olfactory receptor mOR103-15 (receptor, UniProt Q9QWU6 1-327)
chain: MERRNHTGRVSEFVLLGFPAPAPLRALLFFLSLLAYVLVLTENILIITAIRNHPTLHKPMYFFLANMSFLEIWYVTVTIPKMLAGFIGSEENHGQLISFEACMTQLYFFLGLGCTECVLLAVMAYDRYVAICHPLHYPVIVSSRLCVQMAAGSWAGGFGISMVKVFLISRLSYCGPNTINHFFCDVSPLLNLSCTDMSTAELTDFILAIFILLGPLSVTGASYMAITGAVMRIPSAAGRHKAFSTCASHLTVVIIFYAASIFIYARPKALSAFDTNKLVSVLYAVIVPLLNPIIYCLRNQEVKKALRRTLHLAQGQDANTKKSSRDG
For B1, the binding entry is recorded as “binds”.
